Consider 20 targets from the supplement of paper PMC12067093, “Discovery and optimisation of a covalent ligand for TRIM25 and its application to targeted protein ubiquitination” (Chemical Science, 2025).

Sequences of proteins named here, by UniProt entry; tags and fusion partners are left off. A change or cut given only in a name is not applied to a line headed by its entry.
UniProt P53597: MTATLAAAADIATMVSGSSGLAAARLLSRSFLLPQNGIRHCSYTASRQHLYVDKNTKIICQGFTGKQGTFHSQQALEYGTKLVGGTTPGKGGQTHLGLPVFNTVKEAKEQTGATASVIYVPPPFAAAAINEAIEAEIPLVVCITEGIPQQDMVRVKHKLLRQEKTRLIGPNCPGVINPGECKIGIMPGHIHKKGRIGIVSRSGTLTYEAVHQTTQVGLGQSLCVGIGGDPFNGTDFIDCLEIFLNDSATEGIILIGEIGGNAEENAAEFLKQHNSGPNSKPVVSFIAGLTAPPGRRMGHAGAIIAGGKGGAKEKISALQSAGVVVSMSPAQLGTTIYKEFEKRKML
UniProt Q9P246, whole entry, looked up: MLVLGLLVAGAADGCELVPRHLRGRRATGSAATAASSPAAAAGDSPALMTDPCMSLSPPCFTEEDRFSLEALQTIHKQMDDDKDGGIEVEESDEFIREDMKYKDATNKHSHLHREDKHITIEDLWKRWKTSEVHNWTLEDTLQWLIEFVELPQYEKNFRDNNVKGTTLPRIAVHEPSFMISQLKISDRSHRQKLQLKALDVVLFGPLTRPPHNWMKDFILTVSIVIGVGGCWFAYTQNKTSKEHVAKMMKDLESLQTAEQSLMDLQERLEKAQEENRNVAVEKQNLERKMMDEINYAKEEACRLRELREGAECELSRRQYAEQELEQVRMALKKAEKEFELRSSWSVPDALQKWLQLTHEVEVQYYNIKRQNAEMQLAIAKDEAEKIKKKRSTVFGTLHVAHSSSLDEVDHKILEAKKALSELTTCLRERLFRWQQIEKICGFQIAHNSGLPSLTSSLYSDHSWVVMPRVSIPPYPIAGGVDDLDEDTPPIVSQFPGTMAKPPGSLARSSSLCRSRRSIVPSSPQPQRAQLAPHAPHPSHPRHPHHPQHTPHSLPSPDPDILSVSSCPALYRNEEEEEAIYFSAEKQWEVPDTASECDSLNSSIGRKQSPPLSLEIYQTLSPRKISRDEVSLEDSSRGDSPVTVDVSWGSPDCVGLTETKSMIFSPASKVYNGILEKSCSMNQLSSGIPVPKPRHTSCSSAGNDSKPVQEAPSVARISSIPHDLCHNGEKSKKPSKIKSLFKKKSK
UniProt Q9UNE7: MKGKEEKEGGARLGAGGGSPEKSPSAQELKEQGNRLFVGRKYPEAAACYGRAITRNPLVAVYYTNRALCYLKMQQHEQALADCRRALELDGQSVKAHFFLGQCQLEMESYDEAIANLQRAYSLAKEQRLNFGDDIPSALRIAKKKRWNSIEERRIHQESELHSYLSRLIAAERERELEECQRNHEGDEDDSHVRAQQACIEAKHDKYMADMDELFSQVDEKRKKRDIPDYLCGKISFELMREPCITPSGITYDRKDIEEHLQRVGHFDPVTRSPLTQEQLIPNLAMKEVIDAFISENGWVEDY
UniProt Q8N3U4: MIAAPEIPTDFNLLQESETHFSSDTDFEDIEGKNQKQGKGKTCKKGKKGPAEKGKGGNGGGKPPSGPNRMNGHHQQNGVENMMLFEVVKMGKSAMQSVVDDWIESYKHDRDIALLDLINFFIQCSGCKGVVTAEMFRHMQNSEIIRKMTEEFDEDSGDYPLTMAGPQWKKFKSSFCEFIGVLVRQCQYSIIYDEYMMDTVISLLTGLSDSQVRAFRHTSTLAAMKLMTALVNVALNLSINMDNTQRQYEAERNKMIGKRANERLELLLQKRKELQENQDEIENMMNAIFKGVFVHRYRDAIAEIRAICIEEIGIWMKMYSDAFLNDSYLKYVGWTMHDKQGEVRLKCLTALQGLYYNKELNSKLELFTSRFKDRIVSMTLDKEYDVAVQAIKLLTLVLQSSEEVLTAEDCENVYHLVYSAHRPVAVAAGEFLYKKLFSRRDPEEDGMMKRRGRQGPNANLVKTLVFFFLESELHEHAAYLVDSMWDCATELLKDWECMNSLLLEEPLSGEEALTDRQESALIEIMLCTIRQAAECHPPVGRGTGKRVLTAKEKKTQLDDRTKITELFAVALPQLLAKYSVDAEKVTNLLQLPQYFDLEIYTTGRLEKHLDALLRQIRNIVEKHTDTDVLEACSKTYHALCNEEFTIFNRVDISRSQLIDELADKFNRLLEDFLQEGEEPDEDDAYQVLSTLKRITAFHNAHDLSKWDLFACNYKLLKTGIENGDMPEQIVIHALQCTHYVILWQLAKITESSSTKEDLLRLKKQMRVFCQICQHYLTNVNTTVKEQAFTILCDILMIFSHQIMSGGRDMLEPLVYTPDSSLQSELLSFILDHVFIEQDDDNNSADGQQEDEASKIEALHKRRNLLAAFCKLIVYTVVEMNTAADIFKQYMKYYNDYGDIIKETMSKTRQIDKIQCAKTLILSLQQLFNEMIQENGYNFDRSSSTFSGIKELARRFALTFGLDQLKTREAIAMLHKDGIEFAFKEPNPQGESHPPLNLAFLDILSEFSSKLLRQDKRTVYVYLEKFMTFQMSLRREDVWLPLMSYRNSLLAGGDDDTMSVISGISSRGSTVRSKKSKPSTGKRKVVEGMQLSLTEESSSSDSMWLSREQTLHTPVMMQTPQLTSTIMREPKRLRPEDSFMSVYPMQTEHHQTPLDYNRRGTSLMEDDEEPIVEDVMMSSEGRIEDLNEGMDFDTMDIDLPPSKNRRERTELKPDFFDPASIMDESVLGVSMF
UniProt Q15468: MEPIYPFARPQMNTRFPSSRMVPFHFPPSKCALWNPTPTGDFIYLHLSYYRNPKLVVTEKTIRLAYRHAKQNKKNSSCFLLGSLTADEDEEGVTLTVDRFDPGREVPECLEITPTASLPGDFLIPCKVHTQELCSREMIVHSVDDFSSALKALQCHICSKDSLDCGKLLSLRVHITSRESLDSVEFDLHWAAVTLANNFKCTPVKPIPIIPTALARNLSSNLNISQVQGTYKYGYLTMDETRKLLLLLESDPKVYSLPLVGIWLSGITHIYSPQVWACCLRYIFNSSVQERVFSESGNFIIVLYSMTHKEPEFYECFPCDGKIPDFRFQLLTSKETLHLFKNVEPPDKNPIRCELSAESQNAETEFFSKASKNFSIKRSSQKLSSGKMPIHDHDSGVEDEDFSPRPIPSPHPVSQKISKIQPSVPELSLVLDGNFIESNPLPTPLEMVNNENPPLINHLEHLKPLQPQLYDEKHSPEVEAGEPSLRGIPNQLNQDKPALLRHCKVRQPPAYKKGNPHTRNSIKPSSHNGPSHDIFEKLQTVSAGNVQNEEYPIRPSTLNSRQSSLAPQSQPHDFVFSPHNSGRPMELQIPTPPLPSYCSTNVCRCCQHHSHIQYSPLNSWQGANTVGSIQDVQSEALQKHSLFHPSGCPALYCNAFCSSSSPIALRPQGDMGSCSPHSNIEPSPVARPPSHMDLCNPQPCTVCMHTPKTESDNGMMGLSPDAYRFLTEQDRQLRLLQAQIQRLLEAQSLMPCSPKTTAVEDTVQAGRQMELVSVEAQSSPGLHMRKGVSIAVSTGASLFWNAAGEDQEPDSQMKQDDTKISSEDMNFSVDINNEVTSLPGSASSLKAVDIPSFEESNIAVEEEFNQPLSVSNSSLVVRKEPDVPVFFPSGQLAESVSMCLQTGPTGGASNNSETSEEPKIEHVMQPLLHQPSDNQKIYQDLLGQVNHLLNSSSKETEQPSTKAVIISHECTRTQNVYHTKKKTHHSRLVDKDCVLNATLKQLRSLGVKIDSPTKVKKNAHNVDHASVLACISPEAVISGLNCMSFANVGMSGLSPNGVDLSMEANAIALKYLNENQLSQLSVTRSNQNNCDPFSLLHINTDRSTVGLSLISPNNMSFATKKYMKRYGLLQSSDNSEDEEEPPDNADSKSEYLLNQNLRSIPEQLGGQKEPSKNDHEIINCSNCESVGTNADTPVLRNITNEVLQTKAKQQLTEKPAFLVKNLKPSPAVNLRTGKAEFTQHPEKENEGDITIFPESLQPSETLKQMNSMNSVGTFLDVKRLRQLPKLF
UniProt O94768: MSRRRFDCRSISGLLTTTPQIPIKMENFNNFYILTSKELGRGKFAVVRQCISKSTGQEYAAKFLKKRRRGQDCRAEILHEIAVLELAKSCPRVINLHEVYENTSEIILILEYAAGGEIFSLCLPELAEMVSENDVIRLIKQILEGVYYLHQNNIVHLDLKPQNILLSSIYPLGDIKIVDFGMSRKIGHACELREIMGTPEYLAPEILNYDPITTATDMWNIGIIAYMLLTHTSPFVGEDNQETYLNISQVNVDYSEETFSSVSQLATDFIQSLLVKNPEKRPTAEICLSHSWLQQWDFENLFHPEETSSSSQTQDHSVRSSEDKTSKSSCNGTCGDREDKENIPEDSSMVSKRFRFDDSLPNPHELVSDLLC
UniProt Q9Y5B9, whole entry, looked up: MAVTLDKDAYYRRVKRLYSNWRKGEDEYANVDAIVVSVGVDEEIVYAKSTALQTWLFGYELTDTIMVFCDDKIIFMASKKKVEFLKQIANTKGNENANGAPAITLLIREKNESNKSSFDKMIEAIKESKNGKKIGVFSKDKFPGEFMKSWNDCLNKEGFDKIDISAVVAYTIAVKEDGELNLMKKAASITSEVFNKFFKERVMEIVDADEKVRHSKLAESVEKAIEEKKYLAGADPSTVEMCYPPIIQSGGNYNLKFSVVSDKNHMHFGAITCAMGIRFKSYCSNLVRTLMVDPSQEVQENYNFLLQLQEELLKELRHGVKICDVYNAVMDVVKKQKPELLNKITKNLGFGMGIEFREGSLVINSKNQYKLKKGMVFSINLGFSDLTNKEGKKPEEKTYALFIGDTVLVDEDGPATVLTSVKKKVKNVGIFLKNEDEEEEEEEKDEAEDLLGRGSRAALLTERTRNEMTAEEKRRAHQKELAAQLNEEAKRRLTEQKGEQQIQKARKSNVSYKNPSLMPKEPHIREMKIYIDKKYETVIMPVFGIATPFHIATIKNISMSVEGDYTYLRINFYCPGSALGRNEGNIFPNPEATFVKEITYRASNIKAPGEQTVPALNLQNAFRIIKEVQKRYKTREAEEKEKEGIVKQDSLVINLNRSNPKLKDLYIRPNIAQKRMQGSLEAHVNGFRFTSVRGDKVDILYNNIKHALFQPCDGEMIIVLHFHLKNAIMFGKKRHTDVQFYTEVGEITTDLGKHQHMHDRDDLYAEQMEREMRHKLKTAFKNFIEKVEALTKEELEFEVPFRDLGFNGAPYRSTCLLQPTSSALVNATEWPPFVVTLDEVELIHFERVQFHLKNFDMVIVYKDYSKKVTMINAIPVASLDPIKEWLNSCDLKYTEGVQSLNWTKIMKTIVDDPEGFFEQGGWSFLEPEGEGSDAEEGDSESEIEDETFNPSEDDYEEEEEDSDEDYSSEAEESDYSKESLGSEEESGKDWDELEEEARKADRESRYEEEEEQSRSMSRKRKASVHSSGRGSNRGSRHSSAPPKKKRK
UniProt Q8IYB3: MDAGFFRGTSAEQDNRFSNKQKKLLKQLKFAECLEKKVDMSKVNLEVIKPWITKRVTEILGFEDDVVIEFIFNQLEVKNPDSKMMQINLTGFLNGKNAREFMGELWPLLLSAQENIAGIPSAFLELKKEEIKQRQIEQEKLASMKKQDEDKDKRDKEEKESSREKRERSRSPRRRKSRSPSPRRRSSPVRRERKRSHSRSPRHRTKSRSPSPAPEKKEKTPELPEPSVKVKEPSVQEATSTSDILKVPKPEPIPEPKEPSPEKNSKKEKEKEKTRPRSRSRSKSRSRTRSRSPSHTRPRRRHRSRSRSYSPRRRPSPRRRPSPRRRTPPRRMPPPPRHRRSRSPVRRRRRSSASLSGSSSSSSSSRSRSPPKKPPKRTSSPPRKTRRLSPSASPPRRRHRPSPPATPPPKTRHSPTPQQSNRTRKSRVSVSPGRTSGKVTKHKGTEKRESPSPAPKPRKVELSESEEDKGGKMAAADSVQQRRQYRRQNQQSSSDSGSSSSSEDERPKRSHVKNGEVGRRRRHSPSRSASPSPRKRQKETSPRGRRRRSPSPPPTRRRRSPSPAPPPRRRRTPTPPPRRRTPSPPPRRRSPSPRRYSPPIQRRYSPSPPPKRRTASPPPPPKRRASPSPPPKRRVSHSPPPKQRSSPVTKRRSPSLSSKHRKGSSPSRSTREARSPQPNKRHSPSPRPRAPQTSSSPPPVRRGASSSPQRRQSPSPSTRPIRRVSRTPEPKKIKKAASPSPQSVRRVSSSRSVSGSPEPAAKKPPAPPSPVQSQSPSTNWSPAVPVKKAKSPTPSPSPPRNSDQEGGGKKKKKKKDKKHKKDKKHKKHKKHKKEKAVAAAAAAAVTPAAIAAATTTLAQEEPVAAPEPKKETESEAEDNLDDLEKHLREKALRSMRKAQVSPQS
UniProt P84103: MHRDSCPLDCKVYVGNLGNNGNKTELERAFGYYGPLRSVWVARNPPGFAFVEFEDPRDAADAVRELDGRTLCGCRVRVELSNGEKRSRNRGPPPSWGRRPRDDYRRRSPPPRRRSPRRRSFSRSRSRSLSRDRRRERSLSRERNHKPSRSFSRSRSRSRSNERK

This is one part of the list.

Compound in this assay: CC1Cc2ccccc2N1C(=O)C1CCCN(C1)C(=O)CCl (mixture of isomers) [TRIM25 ligand 11 (diastereomer mixture)]
Description: probe-labelled cysteine peptide fold change vs DMSO (competition) (log2 fold change); higher = less target engagement (more negative = stronger competition). The settings on record: THP-1, incubation time: 4 h.
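Note: competitive chemoproteomic profiling in live THP-1 cells with an iodoacetamide desthiobiotin (IA-DTB) probe, comparing probe-labelled peptide intensities in compound-treated cells against DMSO-treated controls.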

As to “STAT2_P52630_676_DEAFGCYYQEK (UniProt P52630)”, the “probe-labelled cysteine peptide fold change” value was 0.0997 (10 µM) and -0.0436 (50 µM).

Turning to “SUPT4H1_P63272_36_TIDQFEYDGCDNCDAYLQMK (UniProt P63272)”, the “probe-labelled cysteine peptide fold change” value runs as follows: (10 µM) -0.039; (50 µM) -0.0331.

In the case of “SUPT6H_Q7KZ85_1021_TQLVTMCHMGPK (UniProt Q7KZ85)”, the “probe-labelled cysteine peptide fold change” value is, setting by setting: (10 µM) -0.0542; (50 µM) -0.0569.

In the case of “SUCLG1_P53597_60_IICQGFTGK (UniProt P53597)”, the “probe-labelled cysteine peptide fold change” value reads like this: (10 µM) -0.0252; (50 µM) 0.0159.

Consider “STIM2_Q9P246_313_EGAECELSR (UniProt Q9P246)”, for which the “probe-labelled cysteine peptide fold change” value is 0.0213 (10 µM) and -0.231 (50 µM).

As to “ST14_Q9Y5Y6_550_SQQCNGKDDCGDGSDEASCPK (UniProt Q9Y5Y6)”, the “probe-labelled cysteine peptide fold change” value (10 µM) stood at 0.0828 and the “probe-labelled cysteine peptide fold change” value (50 µM) turned out to be 0.0306.

Consider “STUB1_Q9UNE7_83_MQQHEQALADCRR (UniProt Q9UNE7)”, for which the “probe-labelled cysteine peptide fold change” value was -0.218 (10 µM) and -0.0369 (50 µM).

As for “STOM_P27105_87_GPGLFFILPCTDSFIK (UniProt P27105)”, the “probe-labelled cysteine peptide fold change” value is, setting by setting: (10 µM) 0.292; (50 µM) 0.467.

For “SSB_P05455_18_ICHQIEYYFGDFNLPR (UniProt P05455)”, the “probe-labelled cysteine peptide fold change” value reads like this: (10 µM) -0.0697; (50 µM) -0.0312.

As to “STAG2_Q8N3U4_711_WDLFACNYK (UniProt Q8N3U4)”, the “probe-labelled cysteine peptide fold change” value came to 0.0901 (10 µM) and 0.11 (50 µM).

As for “STIL_Q15468_970_AVIISHECTR (UniProt Q15468)”, the “probe-labelled cysteine peptide fold change” value (10 µM) was -0.137 and the “probe-labelled cysteine peptide fold change” value (50 µM) is -0.0233.

Turning to “STK17B_O94768_334_SSCNGTCGDREDK (UniProt O94768)”, the “probe-labelled cysteine peptide fold change” value is -0.103 (10 µM) and -0.00892 (50 µM).

With “STUB1_Q9UNE7_244_EPCITPSGITYDRK (UniProt Q9UNE7)”, the “probe-labelled cysteine peptide fold change” value (10 µM) was -0.101 and the “probe-labelled cysteine peptide fold change” value (50 µM) was -0.121.

“STK39_Q9UEW8_450_EASSCAVNLVLR (UniProt Q9UEW8)”: the “probe-labelled cysteine peptide fold change” value reads like this: (10 µM) 0.0335; (50 µM) -0.0196.

Consider “SUPT6H_Q7KZ85_939_RIQDPLIEFAQVCSSDEDILCLK (UniProt Q7KZ85)”, for which the “probe-labelled cysteine peptide fold change” value is, setting by setting: (10 µM) -0.53; (50 µM) 0.221.

As to “SUPT16H_Q9Y5B9_323_ICDVYNAVMDVVK (UniProt Q9Y5B9)”, the “probe-labelled cysteine peptide fold change” value is 0.141 (10 µM) and -0.00646 (50 µM).

For the target “SRRM1_Q8IYB3_33_FAECLEK (UniProt Q8IYB3)”, the “probe-labelled cysteine peptide fold change” value (10 µM) is -0.106 and the “probe-labelled cysteine peptide fold change” value (50 µM) came out at 0.055.

For “SRSF3_P84103_10_DSCPLDCK (UniProt P84103)”, the “probe-labelled cysteine peptide fold change” value is, setting by setting: (10 µM) -0.261; (50 µM) -0.35.

As to “SRRT_Q9BXP5_715_WLCPLSGKK (UniProt Q9BXP5)”, the “probe-labelled cysteine peptide fold change” value reads like this: (10 µM) -0.351; (50 µM) -0.204.

With “STAG2_Q8N3U4_527_QESALIEIMLCTIR (UniProt Q8N3U4)”, the “probe-labelled cysteine peptide fold change” value by setting is: (10 µM) -0.31; (50 µM) -0.336.
